# Laboratory results from patent publication US20210353612A1, “HYPOXIA-INDUCIBLE FACTOR PROLYL HYDROXYLASE INHIBITORS FOR TREATING AGING-RELATED CONDITIONS” (BioAge Labs, Inc., priority 2020, published 2021).
# At least one compound was matched to its structure with a doubt left.
# Test system: 27-month old C57BL/6 mice with anemia of inflammation
# Assay: Hemoglobin in aged mice with anemia of inflammation (elevated TNFα and/or IL-6), Roxadustat study
# Format: in vivo, mouse
# Settings: 40 mg/kg PO once daily
structure (smiles),measurement,setting,value
Cc1nc(C(=O)NCC(=O)O)c(O)c2ccc(Oc3ccccc3)cc12 [Roxadustat],Hemoglobin levels before vs after treatment (FIG. 14B),"27-month old mice with elevated IL-6, after two weeks, not statistically significant",showed improvement of anemia (increase in hemoglobin)
same,Hb levels of Test Group vs 27-month control group administered vehicle alone,"27-month old mice with elevated TNFα and IL-6, not statistically significant",increased Hb levels
same,Hemoglobin levels before vs after treatment (FIG. 13B),"27-month old mice with elevated TNFα, after two weeks","No significant improvements in hemoglobin levels were found in animals treated with roxadustat, although a protective trend was observed"
